Measurements taken from patent publication US20210207153A1, “SYSTEMS AND METHODS FOR EDITING A PLANT GENOME” (PIONEER HI-BRED INTERNATIONAL, INC., priority 2018, published 2021).
At least one structure is not confirmed: it was looked up by name or label, or the drawing left a doubt.

Tested on: non-bombarded and bombarded embryos
Experiment: Effect of kanamycin on embryo growth in liquid medium
Assay type: cell-based, Brassica
Settings: kanamycin 10 and 20 mg/l
Excerpt: The objective was to determine the concentration of G418 that kills non-transgenic microspores. Prior to this experiment, selection was done on solid medium, not in liquid medium. Using liquid selection for Brassica transgenic cells is novel. Selection in liquid medium is advantageous for at least the following reasons: (a) it allows selection at an early stage, thereby eliminating the need for subsequent transfers of explants, (b) it allows for a cleaner selection because the explants are generally smaller when they are in liquid medium and the liquid allows all the surfaces of the explant to be exposed to the selection agent, (c) it may reduce the frequency of chimeras, and (d) a lower amount of the selection agent is needed therefore reducing the toxicity to the researcher and the environment. The effect of various concentrations of kanamycin on embryo growth in liquid medium was tested. […] Accordingly, it was difficult to discriminate transgenic tissue or embryos from non-transgenic.

## NC[C@H]1O[C@H](O[C@H]2[C@H](O)[C@@H](O[C@H]3O[C@H](CO)[C@@H](O)[C@H](N)[C@H]3O)[C@H](N)C[C@@H]2N)[C@H](O)[C@@H](O)[C@@H]1O [kanamycin]
  inhibition of growth of bombarded embryos: failed to inhibit the growth
